Values of other authors, collected in patent publication US20140080846A1, “Method of treating orphan respiratry diseases using doxofylline” (priority 2012, published 2014).
For at least one compound, name, drawing or mass did not settle the structure.

Conditions: 500 ug inhaled twice per day, compared to placebo

C[C@@H]1C[C@H]2[C@@H]3C[C@H](F)C4=CC(=O)C=C[C@]4(C)[C@@]3(F)[C@@H](O)C[C@]2(C)[C@@]1(O)C(=O)SCF [fluticasone]
clinical outcome in patients with bronchiectasis: clinical improvement
